# Laboratory results reported in the supplement of paper PMC8728848.
# The other results are listed elsewhere or left out.
# B1: SUN4 (Saccharomyces cerevisiae), P53616 (protein)
# chain: MGSSHHHHHHSSGLVPRGSHNGSIYGDLADFSGPYEKFEDGTIPCGQFPSGQGVIPISWLDEGGWSGVENTDTSTGGSCKEGSYCSYACQPGMSKTQWPSDQPSDGRSIGGLLCKDGYLYRSNTDTDYLCEWGVDAAYVVSELSNDVAICRTDYPGTENMVIPTYVQAGDSLPLTVVDQDTYYTWQGLKTSAAYYVNNAGISVEDACVWGSSSSGVGNWAPLNFGAGSSDGVAYLSLIPNPNNGNALNFNVKIVAADDSSTVNGECIYENGSFSGGSDGCTVSVTAGKAKFVLYN
# Assays:
# Experiment in all cases: glycan array binding signal (z-score within array); higher = stronger binding
# Details in all cases: glycan notation: IUPAC condensed, linker removed; mutation: Q318A
# [1] = molecular target: GlcNAc(b1-3)Gal(b1-4)GlcNAc(b1-3)Gal(b1-4)GlcNAc(b1-3)Gal(b1-4)GlcNAc(b1-3)Gal(b1-4)GlcNAc(b1-2)[GlcNAc(b1-3)Gal(b1-4)GlcNAc(b1-3)Gal(b1-4)GlcNAc(b1-3)Gal(b1-4)GlcNAc(b1-3)Gal(b1-4)GlcNAc(b1-6)]Man(a1-6)[GlcNAc(b1-3)Gal(b1-4)GlcNAc(b1-3)Gal(b1-4)GlcNAc(b1-3)Gal(b1-4)GlcNAc(b1-3)Gal(b1-4)GlcNAc(b1-2)Man(a1-3)]Man(b1-4)GlcNAc(b1-4)[Fuc(a1-6)]GlcNAc
# Summary of the method: (§1)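 Columns mapping to the same glycan were averaged after glycan names were converted to IUPAC-condensed notation. The data come from 3228 arrays in the Consortium for Functional Glycomics database, limited to those with an available protein sequence. Binding is reported as a within-array Z-score averaged across arrays of one protein sequence and across linkers.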
# [2] = molecular target: GlcNAc(b1-3)Gal(b1-4)GlcNAc(b1-3)Gal(b1-4)GlcNAc(b1-3)GalNAc
# Summary of the method: as §1
# [3] = molecular target: GlcNAc(b1-3)Gal(b1-4)GlcNAc(b1-3)GalNAc
# Summary of the method: as §1
# [4] = molecular target: GlcNAc(b1-3)Gal(b1-4)GlcNAc(b1-3)[GlcNAc(b1-3)Gal(b1-4)GlcNAc(b1-3)]GalNAc
# Summary of the method: as §1
# [5] = molecular target: GlcNAc(b1-3)Gal(b1-4)GlcNAc(b1-6)[Gal(b1-3)]GalNAc
# Summary of the method: as §1
# [6] = molecular target: GlcNAc(b1-3)Gal(b1-4)GlcNAc(b1-6)[GlcNAc(b1-3)Gal(b1-3)]GalNAc
# Summary of the method: as §1
# [7] = molecular target: GlcNAc(b1-3)Gal(b1-4)GlcNAc(b1-6)[GlcNAc(b1-3)]Gal(b1-4)GlcNAc
# Summary of the method: as §1
# GlcNAc(b1-3)GalNAc = molecular target: GlcNAc(b1-3)GalNAc
# Summary of the method: as §1
# GlcNAc(b1-3)Man = molecular target: GlcNAc(b1-3)Man
# Summary of the method: as §1
# [8] = molecular target: GlcNAc(b1-3)[GlcNAc(b1-4)][GlcNAc(b1-6)]GlcNAc
# Summary of the method: as §1
# [9] = molecular target: GlcNAc(b1-3)[GlcNAc(b1-6)]Gal(b1-4)GlcNAc
# Summary of the method: as §1
# [10] = molecular target: GlcNAc(b1-3)[GlcNAc(b1-6)]GalNAc
# Summary of the method: as §1
# [11] = molecular target: GlcNAc(b1-4)Gal(b1-4)GlcNAc
# Summary of the method: as §1
# GlcNAc(b1-4)GlcNAc = molecular target: GlcNAc(b1-4)GlcNAc
# Summary of the method: as §1
# [12] = molecular target: GlcNAc(b1-4)GlcNAc(b1-4)GlcNAc
# Summary of the method: as §1
# [13] = molecular target: GlcNAc(b1-4)GlcNAc(b1-4)GlcNAc(b1-4)GlcNAc(b1-4)GlcNAc
# Summary of the method: as §1
# [14] = molecular target: GlcNAc(b1-4)GlcNAc(b1-4)GlcNAc(b1-4)GlcNAc(b1-4)GlcNAc(b1-4)GlcNAc
# Summary of the method: as §1
# [15] = molecular target: GlcNAc(b1-4)[GlcNAc(b1-6)]GalNAc
# Summary of the method: as §1
# [16] = molecular target: GlcNAc(b1-6)Gal(b1-4)GlcNAc
# Summary of the method: as §1
# GlcNAc(b1-6)GalNAc = molecular target: GlcNAc(b1-6)GalNAc
# Summary of the method: as §1
# [17] = molecular target: GlcNAc6S(b1-3)Gal(b1-4)GlcNAc
# Summary of the method: as §1
# Kdn(a2-3)Gal(b1-3)GalNAc = molecular target: Kdn(a2-3)Gal(b1-3)GalNAc
# Summary of the method: as §1
# Kdn(a2-3)Gal(b1-3)GlcNAc = molecular target: Kdn(a2-3)Gal(b1-3)GlcNAc
# Summary of the method: as §1
# Kdn(a2-3)Gal(b1-4)Glc = molecular target: Kdn(a2-3)Gal(b1-4)Glc
# Summary of the method: as §1
# Kdn(a2-3)Gal(b1-4)GlcNAc = molecular target: Kdn(a2-3)Gal(b1-4)GlcNAc
# Summary of the method: as §1
# [18] = molecular target: Kdn(a2-3)Gal(b1-4)[Fuc(a1-3)]GlcNAc
# Summary of the method: as §1
# Kdn(a2-6)Gal(b1-4)GlcNAc = molecular target: Kdn(a2-6)Gal(b1-4)GlcNAc
# Summary of the method: as §1
# [19] = molecular target: Man(a1-2)Man(a1-2)Man(a1-3)Man
# Summary of the method: as §1
# [20] = molecular target: Man(a1-2)Man(a1-2)Man(a1-6)[Man(a1-3)]Man
# Summary of the method: as §1
# Man(a1-2)Man(a1-3)Man = molecular target: Man(a1-2)Man(a1-3)Man
# Summary of the method: as §1
# [21] = molecular target: Man(a1-2)Man(a1-3)[Man(a1-2)Man(a1-6)]Man
# Summary of the method: as §1
# [22] = molecular target: Man(a1-2)Man(a1-3)[Man(a1-2)Man(a1-6)]Man(a1-6)[Man(a1-2)Man(a1-2)Man(a1-3)]Man
# Summary of the method: as §1
# [23] = molecular target: Man(a1-2)Man(a1-3)[Man(a1-2)Man(a1-6)]Man(a1-6)[Man(a1-2)Man(a1-2)Man(a1-3)]Man(b1-4)GlcNAc(b1-4)GlcNAc
# Summary of the method: as §1
# [24] = molecular target: Man(a1-2)Man(a1-3)[Man(a1-6)]Man(a1-6)[Man(a1-2)Man(a1-3)]Man(b1-4)GlcNAc(b1-4)GlcNAc
# Summary of the method: as §1
# [25] = molecular target: Man(a1-2)Man(a1-6)[Man(a1-3)]Man(a1-6)[Man(a1-2)Man(a1-2)Man(a1-3)]Man
# Summary of the method: as §1
# [26] = molecular target: Man(a1-2)Man(a1-6)[Man(a1-3)]Man(a1-6)[Man(a1-2)Man(a1-2)Man(a1-3)]Man(b1-4)GlcNAc(b1-4)GlcNAc
# Summary of the method: as §1
# Man(a1-3)[Man(a1-6)]Man = molecular target: Man(a1-3)[Man(a1-6)]Man
# Summary of the method: as §1
# [27] = molecular target: Man(a1-3)[Man(a1-6)]Man(a1-6)[Man(a1-2)Man(a1-3)]Man(b1-4)GlcNAc(b1-4)GlcNAc
# Summary of the method: as §1
# [28] = molecular target: Man(a1-3)[Man(a1-6)]Man(a1-6)[Man(a1-3)]Man
# Summary of the method: as §1
# [29] = molecular target: Man(a1-3)[Man(a1-6)]Man(a1-6)[Man(a1-3)]Man(b1-4)GlcNAc(b1-4)GlcNAc
# Summary of the method: as §1
# [30] = molecular target: Man(a1-3)[Man(a1-6)]Man(b1-4)GlcNAc(b1-4)GlcNAc
# Summary of the method: as §1
# [31] = molecular target: Man(a1-3)[Man(a1-6)]Man(b1-4)GlcNAc(b1-4)[Fuc(a1-6)]GlcNAc
# Summary of the method: as §1
# Man(a1-6)Man = molecular target: Man(a1-6)Man
# Summary of the method: as §1
# Man(b1-4)GlcNAc = molecular target: Man(b1-4)GlcNAc
# Summary of the method: as §1
# MurNAc(b1-4)GlcNAc = molecular target: MurNAc(b1-4)GlcNAc
# Summary of the method: as §1
binder,measurement,setting,value
B1,glycan array binding signal (z-score),[1],0.449
same,glycan array binding signal (z-score),[2],-0.343
same,glycan array binding signal (z-score),[3],0.009
same,glycan array binding signal (z-score),[4],1.21
same,glycan array binding signal (z-score),[5],-0.759
same,glycan array binding signal (z-score),[6],0.161
same,glycan array binding signal (z-score),[7],-0.217
same,glycan array binding signal (z-score),GlcNAc(b1-3)GalNAc,-0.258
same,glycan array binding signal (z-score),GlcNAc(b1-3)Man,-0.628
same,glycan array binding signal (z-score),[8],-1.08
same,glycan array binding signal (z-score),[9],0.221
same,glycan array binding signal (z-score),[10],-0.145
same,glycan array binding signal (z-score),[11],0.394
same,glycan array binding signal (z-score),GlcNAc(b1-4)GlcNAc,0.016
same,glycan array binding signal (z-score),[12],0.057
same,glycan array binding signal (z-score),[13],-1.7
same,glycan array binding signal (z-score),[14],-0.051
same,glycan array binding signal (z-score),[15],0.606
same,glycan array binding signal (z-score),[16],-0.7
same,glycan array binding signal (z-score),GlcNAc(b1-6)GalNAc,-0.369
same,glycan array binding signal (z-score),[17],-0.102
same,glycan array binding signal (z-score),Kdn(a2-3)Gal(b1-3)GalNAc,-0.503
same,glycan array binding signal (z-score),Kdn(a2-3)Gal(b1-3)GlcNAc,-0.088
same,glycan array binding signal (z-score),Kdn(a2-3)Gal(b1-4)Glc,0.215
same,glycan array binding signal (z-score),Kdn(a2-3)Gal(b1-4)GlcNAc,0.246
same,glycan array binding signal (z-score),[18],0.551
same,glycan array binding signal (z-score),Kdn(a2-6)Gal(b1-4)GlcNAc,-0.753
same,glycan array binding signal (z-score),[19],-0.319
same,glycan array binding signal (z-score),[20],0.965
same,glycan array binding signal (z-score),Man(a1-2)Man(a1-3)Man,-0.107
same,glycan array binding signal (z-score),[21],-1.1
same,glycan array binding signal (z-score),[22],0.282
same,glycan array binding signal (z-score),[23],-0.41
same,glycan array binding signal (z-score),[24],0.026
same,glycan array binding signal (z-score),[25],-0.156
same,glycan array binding signal (z-score),[26],-0.126
same,glycan array binding signal (z-score),Man(a1-3)[Man(a1-6)]Man,0.362
same,glycan array binding signal (z-score),[27],1.08
same,glycan array binding signal (z-score),[28],1.55
same,glycan array binding signal (z-score),[29],0.133
same,glycan array binding signal (z-score),[30],-0.143
same,glycan array binding signal (z-score),[31],0.346
same,glycan array binding signal (z-score),Man(a1-6)Man,0.001
same,glycan array binding signal (z-score),Man(b1-4)GlcNAc,0.21
same,glycan array binding signal (z-score),MurNAc(b1-4)GlcNAc,0.75

# 2 consecutive records out of the list so far:
binder,measurement,setting,value
B1,glycan array binding signal (z-score),[14],-0.051
same,glycan array binding signal (z-score),[15],0.606
